# Out of some 320,000 compounds screened, about 2,100 (0.66%) were called active. The shares of active, inactive and inconclusive entries below differ from those in the screen. The call rests on the fitted dose curve; in most records, active means well fitted inhibition curve with a large enough effect in the signal ratio, with a control signal flat (not every such curve was filed as active); inconclusive means small, poorly fitted or top-dose-only effect, or effect the other way, or a change in a side signal; inactive means flat fitted curve, though single readings scatter; the % refers to the signal ratio. Potencies beside an inconclusive call are fits to weak or partial responses and may not hold up.
# Assay: qHTS Assay for Lipid Storage Modulators in Drosophila S3 Cells
# Details: BODIPY lipid droplet fluorescence, 18-24 h, cells fed with added oleic acid; lipid storage change, negative = inhibition: at 46.1 µM (top of the series) unless noted
# How it was run: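 Laser-scanning cytometry quantifies lipid droplet accumulation (500–530 nm total intensity; droplet/cell object ratio) in oleic acid-fed (400 uM added) Drosophila S3 cells treated with a concentration series. 20 uM Triacsin C defined 100% inhibition.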
# On the % scale 0 is the no-effect control and ±100 the full control effect; potency means the concentration at half of the fitted maximal effect.
Structure (SMILES),Potency,"lipid storage change, negative = inhibition"
O=C(Nc1ccc(Cl)cc1)c1cc(Br)ccc1OCC(=O)N1CCOCC1,"inconclusive: 3.26 µM [falling, full curve, poor fit]",–
COc1ccc2oc(=O)c(C(=O)Nc3cccc(C(C)=O)c3)cc2c1,–,inconclusive: -41.2%
CC1(C)CNC(=O)C=C(c2ccccc2)C1,–,inconclusive: 45.6%
CC1CN(CC(O)COC(c2ccc(Cl)cc2)c2ccc(Cl)cc2)CC(C)O1 (centres undefined),"inconclusive: 23.1 µM [cytotoxic, partial curve]",–
Cc1cc(=O)oc2cc(OCC(=O)NC3(C#N)CCCCC3)c(Cl)cc12,–,inconclusive
Cc1ccc(NC(=O)c2ccc3ccccc3n2)cc1S(=O)(=O)N(C)C,–,inconclusive: 28.8%
CN1CCN(Cc2coc3c(Cl)cc(Cl)cc3c2=O)CC1,"inconclusive: 11.6 µM [activator, partial curve]",–
CCOC(=O)CCC(=O)NNC(=O)COc1ccc(C(C)C)cc1Br,–,inconclusive: 14.6%
Cc1ccsc1C1C(C#N)=C(N)OC2=C1C(=O)CCC2 (centres undefined),–,inconclusive: -15.5%
COc1ccccc1CNC(=O)CSc1n[nH]c(N)n1,–,inconclusive: 4.74%
COc1cccc(NC(=O)CNC(=O)N2CC(=O)Nc3ccccc32)c1,–,inconclusive: -18.8%
Cc1ccc(S(=O)(=O)c2c(N)n(CCCN(C)C)c3nc4ccccc4nc23)cc1,–,inconclusive: 29.7%
CCOc1ccc(CC(=O)NNC(=O)/C=C/C(=O)O)cc1,–,inconclusive: 13.6%
Cc1ccccc1-c1noc(CCC(=O)NC2CCCCC2)n1,"inconclusive: 6.51 µM [activator, single point]",–
O=C(Nc1ccc2c(c1)C(=O)N(c1ccccc1)C2=O)c1cccs1,"inconclusive: 7.31 µM [falling, single point]",–
COc1ccc(C2N=C(c3ccccc3)C(C)(C)N2O)cc1OC (centres undefined),"inconclusive: 6.51 µM [activator, partial curve, poor fit]",–
Oc1ccc2ccccc2c1CNc1ccc(Br)cc1,–,inconclusive: -0.377%
Cc1[nH]c(=O)[nH]c(=O)c1CSc1nnc([C@@H](NC(=O)OC(C)(C)C)C(C)C)o1,–,inconclusive: 2.18%
CCC1CCCCN1CCN1C(=O)C2C(C(=O)Nc3ccc(OC)cc3)C3C=CC2(O3)C1C(=O)NC1CCCCC1 (centres undefined),–,inconclusive: 220%
NC(=O)COC(=O)c1ccc2c(c1)S(=O)(=O)c1ccccc1C2=O,"inconclusive: 1.16 µM [falling, single point]",–

Structure (SMILES),Potency,"lipid storage change, negative = inhibition"
OC(CN1CCOCC1)Cn1cnc2ccccc21 (centres undefined),–,inconclusive: -8.26%
COC(=O)N1CC(C)N(C(=O)OC)CC1C (centres undefined),–,inconclusive: -8.99%
O=C(CCN1CCCCC1)Nc1ccccc1,–,inactive
COc1ccc(-n2c(=S)[nH]c3cc(C(=O)Nc4ccc(F)cc4)ccc3c2=O)c(OC)c1,active: 16.4 µM,–
Cc1ccc(C(=O)N/C(=C\c2cccs2)C(=O)NCCc2c[nH]c3ccccc23)cc1,–,inconclusive: 0.252%
O=C(Nc1nc(-c2ccc3c(c2)OCO3)cs1)C1CC1,–,inconclusive: 7.66%
CCN(CC)CCn1c2c(c(SCC(=O)Nc3cccc4ccccc34)nc1=O)CCCC2,–,inconclusive: 18.5%
CCN1CCN(CC(O)COc2cccc(OC)c2)CC1 (centres undefined),–,inconclusive: 9.9%
CC1=C(C(=O)Nc2ccccc2)C(c2ccco2)n2ncnc2N1 (centres undefined),–,inconclusive: 19.8%
COc1ccc(NC(=O)NC2CCCCCCC2)c(OC)c1,–,inactive
CCN(CC)c1ccc(-c2nnc(SCC(=O)Nc3ccccc3C#N)n2-c2ccccc2)cc1,–,inconclusive: -12.2%
O=C(CSc1nnc(NC(=O)c2c(F)cccc2F)s1)NC1CC1,–,inconclusive: -12.6%
C=CCNC(=O)c1ccc2c(c1)nnn2C,–,inconclusive: -0.434%
Cc1ccc(C)c(N2CCN(c3nc4ccccc4c(=O)n3Cc3ccccc3)CC2)c1,–,inconclusive: 4.56% [at 9.22 µM]
CCC1CCc2sc(C(=O)N(C)CC(=O)Nc3cccc(OC)c3)cc2C1 (centres undefined),–,inconclusive: 26.2%
C/C(=N\Nc1cc(Cl)nc(C)n1)c1ccc(Cl)c(Cl)c1,"inconclusive: 0.0291 µM [activator, full curve, poor fit]",–
N#Cc1c(SCC(=O)Nc2nc3ccc(Br)cc3s2)sc2c(O)cc(=O)[nH]c12,"inconclusive: 0.164 µM [activator, full curve, poor fit]",–
O=C(N/N=C/c1ccccc1)c1c(O)c2ccccc2[nH]c1=O,–,inconclusive: -27.7%
O=C(C[n+]1cc(-c2ccc(Br)cc2)n2c1CCCCC2)c1ccccc1,–,inconclusive: 32.2%

# A stretch taken from the entries so far:
Structure (SMILES),Potency,"lipid storage change, negative = inhibition"
OC(CN1CCOCC1)Cn1cnc2ccccc21 (centres undefined),–,inconclusive: -8.26%
COC(=O)N1CC(C)N(C(=O)OC)CC1C (centres undefined),–,inconclusive: -8.99%
O=C(CCN1CCCCC1)Nc1ccccc1,–,inactive
COc1ccc(-n2c(=S)[nH]c3cc(C(=O)Nc4ccc(F)cc4)ccc3c2=O)c(OC)c1,active: 16.4 µM,–
Cc1ccc(C(=O)N/C(=C\c2cccs2)C(=O)NCCc2c[nH]c3ccccc23)cc1,–,inconclusive: 0.252%
O=C(Nc1nc(-c2ccc3c(c2)OCO3)cs1)C1CC1,–,inconclusive: 7.66%
CCN(CC)CCn1c2c(c(SCC(=O)Nc3cccc4ccccc34)nc1=O)CCCC2,–,inconclusive: 18.5%

# — PubChem BioAssay AID2685 (National Center for Advancing Translational Sciences (NCATS), 2010)
